Source: PMC9653920
These are yes or no findings as the source states them, for the method shown. Some entries that bind do so weakly or less than the wild type.

Target: human epidermal growth factor receptor type 2 (HER2) (human (endogenous in SKOV-3, SK-BR-3 and PC-3)) (UniProt P04626)
Test: radioligand binding; binding specificity test on SKOV-3, SK-BR-3 and PC-3 cells; 1 nM labelled DARPin, 1 h at 37 C; control dishes with 100-fold excess of unlabelled DARPin-G3 added 30 min before; percent of cell-associated activity; only the binder purified

- binding: binds
B1: [^99mTc]Tc-(HE)3-G3 (designed binder)
chain: MRGSHEHEHEGSDLGKKLLEAARAGQDDEVRILMANGADVNAKDEYGLTPLYLATAHGHLEIVEVLLKNGADVNAVDAIGFTPLHLAAFIGHLEIAEVLLKHGADVNAQDKFGKTAFDISIGNGNEDLAEILQKLN
modifications: [99mTc]Tc(CO)3 (tricarbonyl technetium) on the N-terminal (HE)3 sequence
